{
  "source": "patent US4175122A",
  "about": "“Biologically active amides” (Burroughs Wellcome Co., priority 1975, dated 1979)",
  "tested_on": "mice of the NZO strain (genetically obese, hyperglycaemic and hyperinsulinaemic)",
  "assay": "APP given intraperitoneally to NZO mice; blood glucose, serum insulin, weight, oral Glucose Tolerance Test",
  "format": "in vivo",
  "details": "mean of 5 male NZO mice; for Serum Insulin: beef equivalent",
  "key": {"[1]": {"details": "day 0 (start, baseline), 1 μg i.p. 3 times a day for 25 days"}},
  "note": "At least one peptide structure holds a part that was inferred or is arguable (an end, a ring closure or a residue). Where no end group is shown, it is not given here.",
  "data": [
    {"substance": "GPSQPTYPGDDAPVEDLIRFYDNLQQYLNVVTRHRY-NH2 [APP, avian pancreatic polypeptide]", "values": [
      {"measurement": "Serum Insulin", "setting": "[1]", "value": 189, "unit": "μU/ml"},
      {"measurement": "Blood glucose", "setting": "[1]", "value": 175, "unit": "mg. %"},
      {"measurement": "Blood glucose", "setting": "day 5, 1 μg i.p. 3 times a day", "value": 162, "unit": "mg. %"},
      {"measurement": "Serum Insulin", "setting": "day 10, 1 μg i.p. 3 times a day", "value": 99, "unit": "μU/ml"},
      {"measurement": "Blood glucose", "setting": "day 15, 1 μg i.p. 3 times a day", "value": 154, "unit": "mg. %"},
      {"measurement": "Serum Insulin", "setting": "day 20, 1 μg i.p. 3 times a day", "value": 47, "unit": "μU/ml"},
      {"measurement": "Blood glucose", "setting": "day 25, 1 μg i.p. 3 times a day", "value": 136, "unit": "mg. %"}
    ]}
  ]
}
